Experimental data: PubChem BioAssay AID1259254 (NCATS, 2017)

Aim: 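Gene knock-downs that lead to re-replication, shown by excess G2 DNA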 (primary screen)
System: human HCT116 colorectal cancer cells
Reagent: single siRNA against human genes
Timing: 3 days
Detection: 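Imaged Hoechst DNA stain sorts each cell into a cycle phase by DNA amount; per plate, G2 fraction set to 0% for non-targeting and 100% for GMNN siRNA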
Direction: G2 robust z-score: higher = more G2 cells, more excess DNA replication
Hit rule: 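Active siRNAs have a G2 robust z of 5 or more median absolute deviations over the median, which in these data means about 38% or higher of GMNN control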
Shown is a random part of about 59,000 reagents tested. About 1,550 of all reagents (2.6%) count as active. 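G2 share is only a proxy for re-replication; each gene was hit by three separate siRNAs, and active genes were retested.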 Unmarked entries are inactive. Reagents against one gene are numbered here. Not all columns of the deposit are shown. No sequences are given here. Not stated in the record: the amount of reagent.

G2 robust z-score, by gene knocked down and reagent
HTATSF1: #1 0.101; #2 -0.425; #3 -0.999
ADSL: #1 -0.745; #2 -1.28; #3 -0.345
TSEN54: #1 0.769; #2 0.676; #3 0.0739
TIMM9: #1 -1.22; #2 -0.256; #3 -1.62
ZNF786: #1 0.0878; #2 0.348; #3 0.589
ALKAL2: #1 0.213; #2 0.997; #3 2.6

Part of the list above, set out differently.
HTATSF1 #1
- G2 robust z-score: 0.101

HTATSF1 #2
- G2 robust z-score: -0.425

Continued:
G2 robust z-score, by gene knocked down and reagent
SERPINA4: #1 -0.189; #2 -1.06; #3 1.12
RMP24: #1 1.23; #2 -0.645; #3 0.621
PTGR2: #1 -0.612; #2 -0.722; #3 -0.484
STRN: #1 -0.867; #2 4.86; #3 -0.3
